Results deposited as PubChem BioAssay AID504764 (Drosophila RNAi Screening Center, 2011)
Assay: 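Genes whose knock-down alters Notch-dependent transcription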 (primary screen). Cells: Drosophila Kc167 cells. Reagent: long dsRNA against Drosophila genes. Time to read-out: about 5 days (4 days dsRNA, then 24 h after transfection). Conditions: transfection of constitutively active membrane-tethered Notch lacking the extracellular domain, read 24 h later. Measurement: 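Light from a Notch-responsive E(spl)m3 luciferase reporter under active Notch, with control-promoter and no-Notch reporter wells to normalise; raw counts from paired wells a and b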. Direction: induced reporter light, run 1, well a and induced reporter light, run 1, well b: higher = more light from the Notch target reporter with active Notch; control promoter light, run 1, well a and control promoter light, run 1, well b: higher = more light from the viral control promoter (cell number, transfection, viability); uninduced reporter light, run 1, well a: higher = more light from the Notch target reporter without active Notch. Rule for the call: 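Wells with low control signal or poorly matching duplicates excluded; duplicates averaged; per source plate, z beyond ±2 for induced/control log2 ratio or beyond ±1.8 for induced/uninduced marks a hit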. Meaning of the calls: active = modifier hit (raised or lowered Notch signal); inactive = not a hit.
In all, the deposit lists about 22,000 reagents; below is an unselected part of those with a known target gene and a result. In the full data, 403 (1.9%) are marked active. 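Unnormalised raw counts per well; ratio z-scores behind the hit calls and whether each hit raises or lowers signal are not deposited.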 Entries without a mark were called inactive. A plus sign joins genes that one reagent is predicted to hit. Reagent sequences are not shown. The record does not give: the amount of reagent.

Silencing of Arr2 (Arrestin 2) [SID104189462] gave: induced reporter light, run 1, well a = 1.20e5; induced reporter light, run 1, well b = 1.17e5; control promoter light, run 1, well a = 1.46e5; control promoter light, run 1, well b = 1.09e5; uninduced reporter light, run 1, well a = 6790.
CG31782 (retired record) [SID104181346] scored induced reporter light, run 1, well a = 99370; induced reporter light, run 1, well b = 1.07e5; control promoter light, run 1, well a = 84080; control promoter light, run 1, well b = 84975; uninduced reporter light, run 1, well a = 7750.
Against CG31782 (retired record) [SID104181348], the values are induced reporter light, run 1, well a = 62250; induced reporter light, run 1, well b = 88305; control promoter light, run 1, well a = 78490; control promoter light, run 1, well b = 88395; uninduced reporter light, run 1, well a = 7890.
After knock-down of Task7 (TWIK-related acid-sensitive K[+] channel 7) [SID104196269] the results were induced reporter light, run 1, well a = 46280; induced reporter light, run 1, well b = 47935; control promoter light, run 1, well a = 49735; control promoter light, run 1, well b = 49965; uninduced reporter light, run 1, well a = 3170.
Depletion of HDAC3 (Histone deacetylase 3) [SID104192144] came out at: induced reporter light, run 1, well a = 1.64e5; induced reporter light, run 1, well b = 1.58e5; control promoter light, run 1, well a = 93545; control promoter light, run 1, well b = 83730; uninduced reporter light, run 1, well a = 16000.
CG44014 [SID104194787] scored induced reporter light, run 1, well a = 1.70e5; induced reporter light, run 1, well b = 2.01e5; control promoter light, run 1, well a = 1.85e5; control promoter light, run 1, well b = 1.91e5; uninduced reporter light, run 1, well a = 14105.
Tig (Tiggrin) [SID104183248] showed induced reporter light, run 1, well a = 1.52e5; induced reporter light, run 1, well b = 1.38e5; control promoter light, run 1, well a = 1.64e5; control promoter light, run 1, well b = 1.71e5; uninduced reporter light, run 1, well a = 9905.
With knock-down of CG5404 [SID104195585], the record shows induced reporter light, run 1, well a = 1.79e5; induced reporter light, run 1, well b = 1.77e5; control promoter light, run 1, well a = 1.35e5; control promoter light, run 1, well b = 1.42e5; uninduced reporter light, run 1, well a = 12740.
For pn (prune) [SID104198614], the values are induced reporter light, run 1, well a = 1.79e5; induced reporter light, run 1, well b = 1.64e5; control promoter light, run 1, well a = 2.62e5; control promoter light, run 1, well b = 2.70e5; uninduced reporter light, run 1, well a = 13820.
Against Cks30A (Cyclin-dependent kinase subunit 30A) [SID104183084], the values are induced reporter light, run 1, well a = 1.99e5; induced reporter light, run 1, well b = 2.15e5; control promoter light, run 1, well a = 2.14e5; control promoter light, run 1, well b = 1.70e5; uninduced reporter light, run 1, well a = 17605.
Depletion of CG1801 [SID104200348] came out at: induced reporter light, run 1, well a = 1.55e5; induced reporter light, run 1, well b = 1.28e5; control promoter light, run 1, well a = 1.60e5; control promoter light, run 1, well b = 1.55e5; uninduced reporter light, run 1, well a = 15855.
Knock-down of mbm + CG11555 [SID104180107] came out at: induced reporter light, run 1, well a = 1.31e5; induced reporter light, run 1, well b = 1.10e5; control promoter light, run 1, well a = 79900; control promoter light, run 1, well b = 63340; uninduced reporter light, run 1, well a = 9165.
mTTF (mitochondrial transcription termination factor) [SID104181701] scored induced reporter light, run 1, well a = 1.05e5; induced reporter light, run 1, well b = 1.22e5; control promoter light, run 1, well a = 1.24e5; control promoter light, run 1, well b = 1.27e5; uninduced reporter light, run 1, well a = 9940.
With knock-down of gudu [SID104182612], the record shows induced reporter light, run 1, well a = 78435; induced reporter light, run 1, well b = 52740; control promoter light, run 1, well a = 80620; control promoter light, run 1, well b = 59815; uninduced reporter light, run 1, well a = 3585.
Against CG11158 [SID104199181], the entry reads induced reporter light, run 1, well a = 46380 (active); induced reporter light, run 1, well b = 42635; control promoter light, run 1, well a = 40755; control promoter light, run 1, well b = 39105; uninduced reporter light, run 1, well a = 2610.
Mcm3 (Minichromosome maintenance 3) [SID104198471] showed induced reporter light, run 1, well a = 1.98e5; induced reporter light, run 1, well b = 1.53e5; control promoter light, run 1, well a = 2.30e5; control promoter light, run 1, well b = 1.95e5; uninduced reporter light, run 1, well a = 14900.
Depletion of Prosbeta4R2 (Proteasome beta4 subunit-related 2) [SID104180295] gave: induced reporter light, run 1, well a = 1.76e5; induced reporter light, run 1, well b = 1.93e5; control promoter light, run 1, well a = 1.92e5; control promoter light, run 1, well b = 1.76e5; uninduced reporter light, run 1, well a = 19750.
CG2608 [SID104182501] gave induced reporter light, run 1, well a = 1.39e5; induced reporter light, run 1, well b = 1.40e5; control promoter light, run 1, well a = 1.07e5; control promoter light, run 1, well b = 1.16e5; uninduced reporter light, run 1, well a = 13185.
